The values that follow come from PMC10296906, “GPCR Binding and JNK3 Activation by Arrestin-3 Have Different Structural Requirements” (Cells, 2023).

The chains behind the UniProt entries cited, without tags or fusion partners. Where a name states a change or a piece, a line headed by the entry shows the natural chain unless it says otherwise. A line that says so, or that is headed by a name, gives the form on record, which may keep a tag or linker.
UniProt P08172: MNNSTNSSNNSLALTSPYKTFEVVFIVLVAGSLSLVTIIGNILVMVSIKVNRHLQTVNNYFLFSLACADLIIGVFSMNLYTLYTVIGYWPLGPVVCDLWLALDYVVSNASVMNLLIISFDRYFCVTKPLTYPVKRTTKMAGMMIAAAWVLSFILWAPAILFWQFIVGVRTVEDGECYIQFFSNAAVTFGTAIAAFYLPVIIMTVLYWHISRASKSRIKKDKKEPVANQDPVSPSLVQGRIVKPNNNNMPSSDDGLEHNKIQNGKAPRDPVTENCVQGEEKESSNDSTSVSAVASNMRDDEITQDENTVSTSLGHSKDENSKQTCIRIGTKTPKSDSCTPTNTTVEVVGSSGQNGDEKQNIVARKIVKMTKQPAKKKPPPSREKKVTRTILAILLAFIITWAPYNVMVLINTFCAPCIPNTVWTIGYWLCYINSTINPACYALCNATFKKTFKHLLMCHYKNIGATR
SmBiT-tagged arrestin-3 Tr393 + K295E (P32120-2, form named): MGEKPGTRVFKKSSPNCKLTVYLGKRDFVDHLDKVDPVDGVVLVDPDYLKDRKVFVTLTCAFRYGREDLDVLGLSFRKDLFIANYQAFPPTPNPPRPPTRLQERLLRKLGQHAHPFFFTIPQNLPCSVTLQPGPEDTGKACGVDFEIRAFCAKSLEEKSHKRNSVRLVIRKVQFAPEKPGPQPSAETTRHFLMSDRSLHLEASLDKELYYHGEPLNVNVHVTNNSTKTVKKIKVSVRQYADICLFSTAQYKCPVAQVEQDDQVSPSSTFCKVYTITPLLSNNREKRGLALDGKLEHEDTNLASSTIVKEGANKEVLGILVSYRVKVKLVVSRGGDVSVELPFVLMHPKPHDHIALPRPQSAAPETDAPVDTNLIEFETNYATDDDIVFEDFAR
SmBiT-tagged truncated arrestin-3-(1–393) (P32120-2, form named): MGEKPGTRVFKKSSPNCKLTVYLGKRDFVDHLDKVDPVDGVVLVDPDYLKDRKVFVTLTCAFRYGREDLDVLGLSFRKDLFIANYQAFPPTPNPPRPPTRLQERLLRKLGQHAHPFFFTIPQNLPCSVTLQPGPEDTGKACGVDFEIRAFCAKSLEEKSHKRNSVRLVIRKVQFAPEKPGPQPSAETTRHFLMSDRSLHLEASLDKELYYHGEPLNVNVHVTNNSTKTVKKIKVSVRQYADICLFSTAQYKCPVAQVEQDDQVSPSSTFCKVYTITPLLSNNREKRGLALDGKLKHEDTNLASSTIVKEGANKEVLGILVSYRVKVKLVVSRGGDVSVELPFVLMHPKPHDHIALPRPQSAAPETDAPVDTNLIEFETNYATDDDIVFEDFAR
SmBiT-tagged arrestin-3 Tr393 + K295A (P32120-2, form named): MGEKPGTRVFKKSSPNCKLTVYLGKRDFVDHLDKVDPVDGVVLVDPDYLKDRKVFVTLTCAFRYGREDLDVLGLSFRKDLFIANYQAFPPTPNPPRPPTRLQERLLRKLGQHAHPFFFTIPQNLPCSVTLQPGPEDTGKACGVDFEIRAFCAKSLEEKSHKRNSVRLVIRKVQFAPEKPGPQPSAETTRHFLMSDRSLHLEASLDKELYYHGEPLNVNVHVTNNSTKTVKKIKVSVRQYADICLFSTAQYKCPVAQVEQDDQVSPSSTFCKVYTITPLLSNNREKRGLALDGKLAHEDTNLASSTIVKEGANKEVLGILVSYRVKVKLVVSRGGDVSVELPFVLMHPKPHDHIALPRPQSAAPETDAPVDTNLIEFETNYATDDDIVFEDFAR
SmBiT-tagged arrestin-3 truncation mutant Tr400 (P32120-2, form named): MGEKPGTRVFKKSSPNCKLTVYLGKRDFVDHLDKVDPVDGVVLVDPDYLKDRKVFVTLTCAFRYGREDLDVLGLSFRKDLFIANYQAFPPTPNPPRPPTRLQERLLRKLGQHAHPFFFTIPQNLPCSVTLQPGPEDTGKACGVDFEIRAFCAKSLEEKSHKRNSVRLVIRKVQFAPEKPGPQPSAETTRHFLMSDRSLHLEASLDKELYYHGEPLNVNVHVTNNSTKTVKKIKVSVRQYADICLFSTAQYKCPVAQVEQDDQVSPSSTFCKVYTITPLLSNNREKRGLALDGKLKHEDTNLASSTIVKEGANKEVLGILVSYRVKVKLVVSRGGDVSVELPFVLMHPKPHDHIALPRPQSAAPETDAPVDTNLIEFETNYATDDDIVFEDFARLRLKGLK
SmBiT-tagged arrestin-3 truncation mutant Tr389 (P32120-2, form named): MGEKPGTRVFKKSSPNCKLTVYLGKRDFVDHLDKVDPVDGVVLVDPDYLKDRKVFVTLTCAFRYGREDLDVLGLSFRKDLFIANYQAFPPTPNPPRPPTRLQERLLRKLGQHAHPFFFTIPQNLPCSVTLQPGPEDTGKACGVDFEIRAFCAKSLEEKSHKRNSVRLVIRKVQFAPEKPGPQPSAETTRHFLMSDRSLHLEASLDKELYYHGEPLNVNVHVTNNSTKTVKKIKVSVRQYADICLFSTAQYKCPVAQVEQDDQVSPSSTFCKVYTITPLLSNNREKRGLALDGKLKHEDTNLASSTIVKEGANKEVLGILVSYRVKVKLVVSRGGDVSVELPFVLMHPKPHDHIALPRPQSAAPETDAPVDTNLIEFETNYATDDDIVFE

These are yes or no findings as the source states them, for the method shown. In cells and extracts the contact can be indirect. Some entries that bind do so weakly or less than the wild type.

This test has as its target LgBiT-tagged human M2 muscarinic acetylcholine receptor (human) (UniProt P08172). As to the kind of experiment: split reporter; NanoBiT complementation in live HEK293 arrestin-2/3 KO cells: SmBiT-arrestin-3 and receptor-LgBiT co-expressed; luminescence read 20 min with nanoGlo substrate, then agonist added (10 µM isoproterenol for β2AR, 10 µM carbachol for M2R) and read 40 min; signal normalized to the basal signal without agonist.
Regarding “SmBiT-tagged arrestin-3 Tr393 + K295E (from UniProt P32120-2 1-393) (domain or fragment)”, the binding result was “binds”. In the case of “SmBiT-tagged truncated arrestin-3-(1–393) (from UniProt P32120-2 1-393) (domain or fragment)”, the binding entry is listed as “binds”. “SmBiT-tagged arrestin-3 Tr393 + K295A (from UniProt P32120-2 1-393) (domain or fragment)”: the binding entry is given as “binds”. For “SmBiT-tagged arrestin-3 truncation mutant Tr400 (from UniProt P32120-2 1-400) (domain or fragment)”, the binding result was “binds”. The value for “SmBiT-tagged arrestin-3 truncation mutant Tr389 (from UniProt P32120-2 1-389) (domain or fragment)” was “binds”.
